## Results of single-concentration screens

Protein sequences, listed by entry. Tags and fused reporters are not part of them. Residues count along the entry.
UniProt Q8IDJ8, 1-583: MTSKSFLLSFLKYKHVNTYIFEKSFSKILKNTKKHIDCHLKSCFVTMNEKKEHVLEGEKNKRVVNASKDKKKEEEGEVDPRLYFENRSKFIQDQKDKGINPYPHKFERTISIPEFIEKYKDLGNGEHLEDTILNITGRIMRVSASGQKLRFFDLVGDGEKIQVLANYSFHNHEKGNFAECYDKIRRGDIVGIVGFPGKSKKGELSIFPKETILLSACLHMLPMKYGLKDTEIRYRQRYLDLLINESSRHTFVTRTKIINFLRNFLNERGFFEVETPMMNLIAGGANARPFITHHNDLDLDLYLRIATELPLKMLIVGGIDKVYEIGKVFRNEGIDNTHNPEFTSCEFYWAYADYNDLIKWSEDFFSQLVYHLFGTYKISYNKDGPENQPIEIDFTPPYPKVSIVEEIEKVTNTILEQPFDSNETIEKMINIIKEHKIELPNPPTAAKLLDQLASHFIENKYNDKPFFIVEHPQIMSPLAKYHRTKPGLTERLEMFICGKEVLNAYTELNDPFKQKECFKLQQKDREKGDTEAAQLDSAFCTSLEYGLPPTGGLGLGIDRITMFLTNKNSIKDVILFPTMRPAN
UniProt A4I591, 1-473: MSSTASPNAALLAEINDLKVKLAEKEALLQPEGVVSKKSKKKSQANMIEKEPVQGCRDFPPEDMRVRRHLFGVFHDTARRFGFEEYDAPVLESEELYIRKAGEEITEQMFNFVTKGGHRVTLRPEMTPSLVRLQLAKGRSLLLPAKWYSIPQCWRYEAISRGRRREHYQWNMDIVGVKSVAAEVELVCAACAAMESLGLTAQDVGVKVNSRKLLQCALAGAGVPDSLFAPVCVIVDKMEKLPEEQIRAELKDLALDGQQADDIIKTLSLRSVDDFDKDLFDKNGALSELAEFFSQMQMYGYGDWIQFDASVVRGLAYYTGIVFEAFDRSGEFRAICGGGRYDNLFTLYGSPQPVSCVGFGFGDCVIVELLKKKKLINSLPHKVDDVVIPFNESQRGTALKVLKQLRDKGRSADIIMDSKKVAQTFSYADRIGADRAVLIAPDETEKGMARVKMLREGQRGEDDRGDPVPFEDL
UniProt Q4DA54, 1-478: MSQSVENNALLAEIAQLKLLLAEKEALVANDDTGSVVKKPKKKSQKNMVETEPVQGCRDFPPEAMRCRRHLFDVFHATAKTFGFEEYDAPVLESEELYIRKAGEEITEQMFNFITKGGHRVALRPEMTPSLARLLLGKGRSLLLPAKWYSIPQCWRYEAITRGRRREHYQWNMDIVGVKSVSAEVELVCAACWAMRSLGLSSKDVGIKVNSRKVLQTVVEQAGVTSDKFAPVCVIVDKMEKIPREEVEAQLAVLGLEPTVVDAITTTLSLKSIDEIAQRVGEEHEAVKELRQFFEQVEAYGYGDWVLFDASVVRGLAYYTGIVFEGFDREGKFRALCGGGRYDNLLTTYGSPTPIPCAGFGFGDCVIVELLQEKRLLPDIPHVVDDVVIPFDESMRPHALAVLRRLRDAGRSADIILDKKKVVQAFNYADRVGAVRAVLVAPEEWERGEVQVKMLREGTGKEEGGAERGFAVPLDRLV
UniProt P9WPC5, whole entry: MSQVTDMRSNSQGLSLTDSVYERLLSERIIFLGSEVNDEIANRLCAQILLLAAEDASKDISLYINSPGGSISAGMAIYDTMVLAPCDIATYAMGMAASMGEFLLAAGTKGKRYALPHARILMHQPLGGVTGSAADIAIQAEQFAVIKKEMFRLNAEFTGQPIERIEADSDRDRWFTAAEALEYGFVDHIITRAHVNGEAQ
UniProt P9WPC3, whole entry partner: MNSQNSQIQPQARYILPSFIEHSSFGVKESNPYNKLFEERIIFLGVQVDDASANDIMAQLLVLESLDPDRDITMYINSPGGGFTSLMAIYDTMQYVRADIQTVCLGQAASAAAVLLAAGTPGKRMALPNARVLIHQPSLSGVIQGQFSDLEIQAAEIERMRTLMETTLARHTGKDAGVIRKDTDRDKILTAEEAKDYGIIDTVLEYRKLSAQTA

A: 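Lysine-tRNA ligase, Plasmodium falciparum 3D7 (UniProt Q8IDJ8). Enzyme assay of the cytosolic lysyl-tRNA synthetase in 384-well plates, read by luminescence. Concentration: 30 µM. Higher reads as stronger inhibition, judged from the few compounds that gave an IC50. Size under these conditions: about 69,000 compounds, about 49 of them at 50% or above in at least one test.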
B: 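Enzyme assay of histidyl-tRNA synthetase; the read-out is not stated. Target: Histidine-tRNA ligase, Leishmania infantum (UniProt A4I591). Compounds at 30 µM. Direction is inferred from retests: higher values go with stronger inhibition. The assay is labelled LdHisRS but filed under L. infantum. Of about 69,000 compounds tested this way, about 410 (0.6%) reached 50% or more in at least one test.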
C: 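Histidine-tRNA ligase, Trypanosoma cruzi CL Brener (UniProt Q4DA54). Enzyme assay of histidyl-tRNA synthetase; the read-out is not stated. Concentration: 30 µM. Direction is inferred from retests: higher values go with stronger inhibition. Size under these conditions: about 69,000 compounds, about 31 of them at 50% or above in at least one test.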
D: 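Cell assay of Leishmania donovani living inside macrophages; the read-out is not stated. Tested at 30 µM. Direction is inferred from retests: higher values go with stronger inhibition. About 69,000 compounds were tested under these conditions; 1.5% (about 1,000) showed 50% or more at least once.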
E: 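ClpP1P2, Mycobacterium tuberculosis (UniProt P9WPC5 and UniProt P9WPC3). Protease assay of ClpP1P2, read by the AMC dye that it sets free. Concentration: 50 µM. Higher reads as stronger inhibition, judged from the few compounds that gave an IC50. Most other retested compounds had strongly negative values. Of about 69,000 compounds tested this way, about 10 (0.015%) reached 50% or more in at least one test.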

Results are given as percent effect.
How 0% and 100% were set is not recorded. Most values in the screen are low, and negative values occur.
This is an unselected part of the compounds tested.
A dash means the value is not listed here; it may have been measured.

| compound | A | B | C | D | E |
|---|---|---|---|---|---|
| `O=C(O)C(F)(F)F.[H][C@@]12CN(C(=O)c3ccncc3F)C[C@]1([H])OCCN2CCOC` | - | - | - | 13.64 | - |
| `Cc1noc(C)c1CN(C)C(=O)c1n[nH]c(N)c1-c1ccccc1` | -0.3586 | 23.81 | 10.89 | 14.31 | 9.2 |
| `COCC1CCN(C(C(=O)O)c2c(F)cccc2OC(C)C)CC1` (stereo not given) | -0.2186 | 5 | 0.8696 | 9.99 | -16.83 |
| `Cc1cnc(C)c(-c2cc(O)c3c(c2)CN(Cc2nccs2)CCO3)n1` | 4.654 | 17.5 | 4.831 | 11.51 | -24.55 |
| `COCCN(Cc1ccoc1)C(=O)c1c(F)cccc1Cl` | 2.021 | 18.45 | 4.348 | -29.29 | -12.62 |
| `O=C(CCn1c(=O)oc2ccccc21)NCC(O)c1ccc(Cl)cc1` (stereo not given) | 0.6864 | 16.48 | 4.95 | 46.94 | 11.52 |
| `Cc1csc(NC(=O)[C@@H]2C[C@H]3[C@H](CCN3S(C)(=O)=O)O2)n1` | 1.388 | 17.31 | 10.61 | - | -5.682 |
| `CC(NCc1c(C(C)C)nn(C)c1N1CCOCC1)C(=O)N(C)C` (stereo not given) | -1.908 | -15.74 | 3.226 | -13.47 | 13.41 |
| `CC(C)NC(=O)CC1COC2(CCN(Cc3ccccc3)CC2)C1.O=C(O)C(F)(F)F` (stereo not given) | - | - | - | 35.31 | - |
| `Cc1c[nH]c(C2CN(Cc3ccccc3C(=O)O)CCO2)n1` (stereo not given) | -0.6097 | 12.86 | 10.34 | -5.516 | -11.25 |
| `O=c1n(CC2CC2)nc(C2CCNCC2)n1Cc1ccccc1` | 2.507 | 30.56 | 2.041 | 0.9608 | -1.694 |
| `CC(C)S(=O)(=O)Cc1cccc(NC(=O)c2ccc[nH]2)c1` | 3.91 | 0 | 12.7 | 3.362 | 6.969 |
| `Fc1cnc(N2CCCC3(CCN(Cc4ccoc4)C3)C2)nc1.O=C(O)C(F)(F)F.O=C(O)C(F)(F)F` (stereo not given) | - | - | - | 13.62 | - |
| `O=C(CN1CCCC1CCCO)NCc1ccccn1` (stereo not given) | -1.483 | 5.479 | -5 | -1.503 | -11.87 |
| `CCOc1ccc(C(=O)N2CCCC2Cn2cc(C)cn2)cn1` (stereo not given) | -0.2209 | 4.63 | 2.639 | 18.83 | -2.611 |
| `CNC(=O)[C@H]1C[C@@H]2CN(C(=O)c3ccncc3F)C[C@@H]2N1C` | -0.4659 | 6 | 0 | - | -1.69 |
| `C/C(Cl)=C/CNC(=O)[C@H]1CC[C@]2(CC1)CN(C)C(=O)c1ccccc1O2` | 2.437 | 12.59 | 6.78 | -12.66 | -14.04 |
| `Cc1cc(C)nc(N2C[C@H]3OC(=O)N(CCc4cccc(Cl)c4)[C@H]3C2)n1` | 7.519 | 12.5 | 7.821 | - | -3.729 |
| `O=C1CCC(C(=O)N2CCOC(Cc3ccccc3Cl)C2)=NN1` (stereo not given) | 5.857 | 0 | 3.896 | 7.948 | -2.265 |
| `O=C1NC2(CCN(CCO)CC2)CC1c1ccccc1` (stereo not given) | 5.675 | 7.018 | 6.452 | - | -0.6528 |
| `O=C(O)C(F)(F)F.O=C1N(CC2CC2)CCC12CCN(Cc1ccoc1)CC2` | - | - | - | 7.621 | - |
| `COc1ccc(C2=Nn3c(CCCN)nnc3-c3ccccc3C2)cc1` | 6.279 | 20 | 12.42 | 30.64 | -0.7753 |
| `Cn1ccnc1C1CCN(C(=O)COCC(F)(F)C(F)F)CC1` | 7.069 | 2.632 | 5.028 | 4.8 | 4.441 |
| `CCN1CCC2(CCN(Cc3nccs3)CC2)C1=O` | 0.7421 | 13.89 | 8.458 | - | -14.13 |
| `Cc1nc(CN2CCC3(CCCN(Cc4ccncc4)C3)C2=O)cs1.O=C(O)C(F)(F)F.O=C(O)C(F)(F)F.O=C(O)C(F)(F)F` (stereo not given) | - | - | - | -6.15 | - |
| `Cc1ccc(C)c(CC(=O)NC2CCC(N3C(=O)CCC3=O)CC2)c1` (stereo not given) | -1.29 | 7.752 | 5.952 | -3.131 | -15.45 |
| `CCc1[nH]c2c(CNc3nc(C)cc(NC)n3)cc(C)cc2c1C` | -0.1394 | 30.77 | 9.036 | 89.36 | 4.616 |
| `CCC(OC)C(=O)N1CCc2nc(NC)nc(C(=O)N3CCCC3)c2C1` (stereo not given) | 4.859 | 11.43 | 3.306 | 20.92 | 8.487 |
| `CCC(Nc1nnnn1-c1ccccc1)C(=O)Nc1nc(C)cs1` (stereo not given) | -1.054 | 5.983 | 10 | 22.69 | 0.3708 |
| `c1ncn(CC2CN(CCCOc3ccc4c(c3)OCO4)CCO2)n1` (stereo not given) | 1.061 | 10.53 | 4.871 | 8.977 | 22.03 |
| `COC(=O)c1sccc1S(=O)(=O)NCC1(O)CCOc2ccccc21` (stereo not given) | 1.889 | 15.38 | 4.132 | 13.78 | -14.68 |
| `O=C(O)C(F)(F)F.O=C(O)C(F)(F)F.[H][C@@]12CCCO[C@]1([H])[C@H](N(C)Cc1ccco1)CN(Cc1cccs1)C2` | - | - | - | 34.89 | - |
| `NC1C=C(C(F)(F)F)NC=C1c1ccc(Cl)cc1` (stereo not given) | 4.382 | 18.56 | 5.78 | 26.22 | 8.643 |

2 of the entries, repeated:

compound,A,B,C,D,E
CC(C)NC(=O)CC1COC2(CCN(Cc3ccccc3)CC2)C1.O=C(O)C(F)(F)F (stereo not given),-,-,-,35.31,-
Cc1c[nH]c(C2CN(Cc3ccccc3C(=O)O)CCO2)n1 (stereo not given),-0.6097,12.86,10.34,-5.516,-11.25

From ChEMBL document CHEMBL3988442, “University of Dundee, Small-Polar-MMV Screening Library” (2021).